The list shows only some results of the screen, not a fair sample: it gathers tests that were run many times, whatever their T/C, doses with no T/C, and many T/C values between a quarter and a half above the control. Other doses and runs of a compound stand elsewhere. T/C is the treated group as % of the vehicle group. Schedule codes are those of the source, taken here to give the interval after Q, in days (D) or hours (H), and the number of doses after X. Some T/C values carry the count of animals alive at the toxicity check (mostly the fifth day); without a count, all were alive then. Some doses have a count of surviving animals in place of a T/C: the source files T/C as zero there, which appears to mark a toxic dose or a test without result, not a measured value. Some survivor counts are full or nearly so, which does not show that the dose was tolerated: survival well below the control is almost never listed, so the zero probably covers shortened survival too. Counts of survivors are from the toxicity check (mostly the fifth day) where no day follows; animals may have died later. Some structures stand for samples that the source files as different forms (salt, stereo form or complex); doses refer to the form tested. Some entries were tested several times; the values are given in rising order. For survival time, the PubChem record calls one and a half times the control and up active, and a quarter to a half above the control has no call in these data; cut-offs in other NCI protocols can differ.
System: BDF1 mice, s.c. Lewis lung carcinoma, T/C %
Test: NCI In Vivo Anticancer Drug Screen. Data for tumor model Lewis Lung Carcinoma (subcutaneous) in B6D2F1 (BDF1) mice
In short: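 Readout: survival or tumor size, expressed as treated (T) over vehicle control (C). Transplantable tumor implanted in mice; compound given to the treated group.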

[1] = T/C endpoint: median survival time, dose: 6.0 mg/kg/injection, schedule: Q01DX009 (ip), vehicle: saline with Tween-80, higher T/C = longer survival
[2] = T/C endpoint: median survival time, dose: 6.25 mg/kg/injection, schedule: Q01DX009 (ip), vehicle: Klucel (hydroxypropylcellulose) (HPC), higher T/C = longer survival
[3] = T/C endpoint: median survival time, dose: 25.0 mg/kg/injection, schedule: Q01DX009 (ip), vehicle: Klucel (hydroxypropylcellulose) (HPC), higher T/C = longer survival
[4] = T/C endpoint: median survival time, dose: 50.0 mg/kg/injection, schedule: Q01DX009 (ip), vehicle: Klucel (hydroxypropylcellulose) (HPC), higher T/C = longer survival

`NNc1nncc2ccccc12` was tested, and the survivor count (T/C endpoint: mean tumor weight, dose: 65.0 mg/kg/injection, schedule: Q01DX011 (ip), vehicle: carboxymethylcellulose (CMC), higher T/C = larger tumour) was 3 of 5, the survivor count (T/C endpoint: mean tumor weight, dose: 100.0 mg/kg/injection, schedule: Q01DX011 (ip), vehicle: carboxymethylcellulose (CMC), higher T/C = larger tumour) was 0 of 6 and the survivor count (T/C endpoint: mean tumor weight, dose: 150.0 mg/kg/injection, schedule: Q01DX011 (ip), vehicle: carboxymethylcellulose (CMC), higher T/C = larger tumour) was 0 of 6. The survivor count (T/C endpoint: mean tumor weight, dose: 225.0 mg/kg/injection, schedule: Q01DX011 (ip), vehicle: carboxymethylcellulose (CMC), higher T/C = larger tumour) was 0 of 6, the survivor count (T/C endpoint: mean tumor weight, dose: 335.0 mg/kg/injection, schedule: Q01DX011 (ip), vehicle: carboxymethylcellulose (CMC), higher T/C = larger tumour) was 0 of 6 and the survivor count (T/C endpoint: mean tumor weight, dose: 500.0 mg/kg/injection, schedule: Q01DX011 (ip), vehicle: carboxymethylcellulose (CMC), higher T/C = larger tumour) was 0 of 6.
In the case of `Cc1cccc(NC(=O)N(CCCl)N=O)c1`, the T/C (T/C endpoint: median survival time, dose: 3.0 mg/kg/injection, schedule: Q01DX009 (ip), vehicle: saline with Tween-80, higher T/C = longer survival) is reported as 142 % of control, the T/C [1] is reported as 143 % of control and the survivor count [1] is reported as 10 of 10. For the same compound, the survivor count (T/C endpoint: median survival time, dose: 12.0 mg/kg/injection, schedule: Q01DX009 (ip), vehicle: saline with Tween-80, higher T/C = longer survival) was 9 of 10.
`CCCCCCCC(=O)O[C@H]1[C@H]2[C@@H](CC1(C)C)C(=O)[C@]13O[C@H]1C(=O)[C@]1(CO1)[C@]23C` was tested, and the survivor count (T/C endpoint: median survival time, dose: 5.0 mg/kg/injection, schedule: Q01DX009 (ip), vehicle: Klucel (hydroxypropylcellulose) (HPC), higher T/C = longer survival) was 10 of 10.
With `C[n+]1ccc(Nc2ccc(NC(=O)c3ccc(Nc4cc[n+](C)c5ccc(N)cc45)cc3N)cc2)cc1` the survivor count (T/C endpoint: mean tumor weight, dose: 25.0 mg/kg/injection, schedule: Q01DX011 (ip), vehicle: saline, higher T/C = larger tumour) was 3 of 6, the T/C [2] was 142 % of control and the survivor count [3] was 10 of 10. For the same compound, the survivor count [4] was 9 of 10.
In the case of `C=C/C(C)=C/[C@H](C)C(=O)C[C@H](O)CC1CC(=O)NC(=O)C1`, the survivor count (T/C endpoint: median survival time, dose: 50.0 mg/kg/injection, schedule: Q01DX009 (ip), vehicle: saline with Tween-80, higher T/C = longer survival) is reported as 10 of 10, the survivor count (T/C endpoint: median survival time, dose: 100.0 mg/kg/injection, schedule: Q01DX009 (ip), vehicle: saline with Tween-80, higher T/C = longer survival) is reported as 3 of 10 and the survivor count (T/C endpoint: median survival time, dose: 200.0 mg/kg/injection, schedule: Q04DX003 (ip), vehicle: saline with Tween-80, higher T/C = longer survival) is reported as 6 of 10.
For `O=NN(CCCl)C(=O)NC1CCC(C(=O)O)CC1` (centres undefined), the survivor count (T/C endpoint: median survival time, dose: 5.0 mg/kg/injection, schedule: Q01DX001 (ip), vehicle: saline with Tween-80, higher T/C = longer survival) was 10 of 10, the T/C (T/C endpoint: median survival time, dose: 18.0 mg/kg/injection, schedule: Q01DX001 (ip), vehicle: saline with Tween-80, higher T/C = longer survival) was 137 % of control and the T/C (T/C endpoint: median survival time, dose: 20.0 mg/kg/injection, schedule: Q01DX001 (ip), vehicle: saline with Tween-80, higher T/C = longer survival) was 125 % of control [9 of 10 alive on day 11]. The T/C (T/C endpoint: median survival time, dose: 30.0 mg/kg/injection, schedule: Q01DX001 (ip), vehicle: saline with Tween-80, higher T/C = longer survival) was 129 and 133 % of control and the T/C (T/C endpoint: median survival time, dose: 45.0 mg/kg/injection, schedule: Q01DX001 (ip), vehicle: saline with Tween-80, higher T/C = longer survival) was 131 % of control.
In the case of `C=C(C)[C@@H]1CC[C@]2(CO)CC[C@]3(C)[C@H](CC[C@@H]4[C@@]5(C)CC[C@H](O)C(C)(C)[C@@H]5CC[C@]43C)[C@@H]12`, the survivor count (T/C endpoint: mean tumor weight, dose: 50.0 mg/kg/injection, schedule: Q01DX011 (ip), vehicle: carboxymethylcellulose (CMC), higher T/C = larger tumour) is reported as 3 of 6.
In the case of `[I][Hg][CH2]C1COCC([CH2][Hg][I])O1.[I][Hg][CH2]C1COCC([CH2][Hg][I])O1` (centres undefined), the survivor count (T/C endpoint: mean tumor weight, dose: 44.0 mg/kg/injection, schedule: Q01DX011 (ip), vehicle: other, higher T/C = larger tumour) is reported as 0 of 6.
With `S=C([S][Sn]([c]1ccccc1)([c]1ccccc1)[c]1ccccc1)N1CCCCC1` the survivor count (T/C endpoint: median survival time, dose: 6.25 mg/kg/injection, schedule: Q01DX009 (ip), vehicle: saline with Tween-80, higher T/C = longer survival) was 10 of 10.
For `CS(=O)(=O)OCC#CCOS(C)(=O)=O`, the T/C (T/C endpoint: mean tumor weight, dose: 8.0 mg/kg/injection, schedule: Q01DX011 (ip), vehicle: saline, evaluated on day 12, higher T/C = larger tumour) was 135 % of control and the survivor count (T/C endpoint: mean tumor weight, dose: 64.0 mg/kg/injection, schedule: Q01DX011 (ip), vehicle: saline, higher T/C = larger tumour) was 1 of 6.
With `S=c1nc[nH]c2c1ncn2C1CCCO1` (centres undefined) the survivor count (T/C endpoint: mean tumor weight, dose: 100.0 mg/kg/injection, schedule: Q01DX011 (ip), vehicle: other, higher T/C = larger tumour) was 3 of 6, the survivor count (T/C endpoint: mean tumor weight, dose: 200.0 mg/kg/injection, schedule: Q01DX011 (ip), vehicle: other, higher T/C = larger tumour) was 0 of 6 and the survivor count (T/C endpoint: mean tumor weight, dose: 400.0 mg/kg/injection, schedule: Q01DX011 (ip), vehicle: other, higher T/C = larger tumour) was 0 of 6.
With `CO[C@H]1C[C@H](O[C@H]2CC[C@]3(C=O)[C@H]4CC[C@]5(C)[C@@H](C6=CC(=O)OC6)CC[C@]5(O)[C@@H]4CC[C@]3(O)C2)O[C@H](C)[C@H]1O` the survivor count (T/C endpoint: mean tumor weight, dose: 6.0 mg/kg/injection, schedule: Q01DX011 (sc), vehicle: steroid suspending solution, higher T/C = larger tumour) was 2 of 6 and the survivor count (T/C endpoint: mean tumor weight, dose: 9.0 mg/kg/injection, schedule: Q01DX011 (sc), vehicle: steroid suspending solution, higher T/C = larger tumour) was 3 of 6.
`COc1ccc(CN2CCCN(Cc3ccc(OC)cc3)C2c2ccc(Cl)cc2Cl)cc1` was tested, and the T/C (T/C endpoint: mean tumor weight, dose: 111.0 mg/kg/injection, schedule: Q01DX011 (ip), vehicle: other, evaluated on day 12, higher T/C = larger tumour) was 140 % of control and the survivor count (T/C endpoint: mean tumor weight, dose: 250.0 mg/kg/injection, schedule: Q01DX011 (ip), vehicle: other, higher T/C = larger tumour) was 0 of 6.
With `O=C1C=CC(=O)c2c(Cl)ccc(O)c21` the survivor count (T/C endpoint: median survival time, dose: 10.0 mg/kg/injection, schedule: Q01DX009 (ip), vehicle: Klucel (hydroxypropylcellulose) (HPC), higher T/C = longer survival) was 5 of 10.
In the case of `CC(C)(C)C(=O)O`, the T/C (T/C endpoint: mean tumor weight, dose: 55.0 mg/kg/injection, schedule: Q01DX011 (ip), vehicle: other, evaluated on day 12, higher T/C = larger tumour) is reported as 134 % of control.
With `CC[CH2][Pb]([CH2]CC)([CH2]CC)[O]C(=O)C(Cl)(Cl)Cl` the survivor count (T/C endpoint: median survival time, dose: 0.75 mg/kg/injection, schedule: Q01DX009 (ip), vehicle: saline with Tween-80, higher T/C = longer survival) was 10 of 10.
`CC(=O)Oc1ccc(OC(C)=O)c2c1C(=O)C=CC2=O` was tested, and the survivor count [2] was 6 of 10, the survivor count (T/C endpoint: median survival time, dose: 12.5 mg/kg/injection, schedule: Q01DX009 (ip), vehicle: Klucel (hydroxypropylcellulose) (HPC), higher T/C = longer survival) was 4 of 10 and the survivor count [3] was 0 of 10.
In the case of `O=P(O)(NCCCl)NCCCl`, the T/C (T/C endpoint: median survival time, dose: 50.0 mg/kg/injection, schedule: Q01DX001 (ip), vehicle: saline, evaluated on day 49, higher T/C = longer survival) is reported as 127 % of control, the T/C (T/C endpoint: median survival time, dose: 50.0 mg/kg/injection, schedule: Q01DX001 (ip), vehicle: saline, evaluated on day 60, higher T/C = longer survival) is reported as 127 % of control and the survivor count (T/C endpoint: median survival time, dose: 200.0 mg/kg/injection, schedule: Q01DX001 (ip), vehicle: saline, higher T/C = longer survival) is reported as 3 of 10 on day 49 and 7 of 10.
For `COc1cc(NS(C)(=O)=O)ccc1Nc1c2cccc(C)c2nc2c(C)cccc12`, the survivor count (T/C endpoint: median survival time, dose: 25.0 mg/kg/injection, schedule: Q01DX011 (ip), vehicle: saline, higher T/C = longer survival) was 10 of 10, the survivor count (T/C endpoint: median survival time, dose: 50.0 mg/kg/injection, schedule: Q01DX011 (ip), vehicle: saline, higher T/C = longer survival) was 10 of 10 and the T/C (T/C endpoint: median tumor weight (est.), dose: 6.25 mg/kg/injection, schedule: Q01DX011 (ip), vehicle: saline, evaluated on day 12, higher T/C = larger tumour) was 137 % of control. For the same compound, the T/C (T/C endpoint: median tumor weight (est.), dose: 12.5 mg/kg/injection, schedule: Q01DX011 (ip), vehicle: saline, evaluated on day 12, higher T/C = larger tumour) was 136 % of control.
`CC(=O)OC1C=CC(=O)OC1C1OC1C` (centres undefined) was tested, and the survivor count (T/C endpoint: mean tumor weight, dose: 29.0 mg/kg/injection, schedule: Q01DX011 (ip), vehicle: saline, higher T/C = larger tumour) was 3 of 6 and the survivor count (T/C endpoint: mean tumor weight, dose: 45.0 mg/kg/injection, schedule: Q01DX011 (ip), vehicle: saline, higher T/C = larger tumour) was 0 of 6.
In the case of `N/N=C(\N)c1nn(C2OC(CO)C(O)C2O)c2ncnc(N)c12` (centres undefined), the survivor count (T/C endpoint: median survival time, dose: 160.0 mg/kg/injection, schedule: Q01DX005 (ip), vehicle: saline, higher T/C = longer survival) is reported as 4 of 4 and the survivor count (T/C endpoint: median survival time, dose: 320.0 mg/kg/injection, schedule: Q01DX005 (ip), vehicle: saline, higher T/C = longer survival) is reported as 0 of 4.
For `CN1C2CCC1CC(OC(=O)C(CO)c1ccccc1)C2` (centres undefined), the T/C (T/C endpoint: mean tumor weight, dose: 25.0 mg/kg/injection, schedule: Q01DX011 (ip), vehicle: saline, evaluated on day 12, higher T/C = larger tumour) was 134 % of control [5 of 6 alive].
`O=C1NC2C(NC(=O)N2Cl)N1Cl` (centres undefined) was tested, and the survivor count (T/C endpoint: mean tumor weight, dose: 80.0 mg/kg/injection, schedule: Q01DX011 (ip), vehicle: saline, higher T/C = larger tumour) was 2 of 6 and the survivor count (T/C endpoint: mean tumor weight, dose: 160.0 mg/kg/injection, schedule: Q01DX011 (ip), vehicle: saline, higher T/C = larger tumour) was 0 of 6.
For `c1cc[c]([Sn]([S][Sn]([c]2ccccc2)([c]2ccccc2)[c]2ccccc2)([c]2ccccc2)[c]2ccccc2)cc1`, the survivor count (T/C endpoint: median survival time, dose: 400.0 mg/kg/injection, schedule: Q01DX009 (ip), vehicle: saline with Tween-80, higher T/C = longer survival) was 10 of 10.
For `CCCCCCCCCCCCCCCCCC(=O)NN`, the T/C [3] was 125 % of control, the T/C [4] was 125 % of control [9 of 10 alive] and the T/C (T/C endpoint: median survival time, dose: 100.0 mg/kg/injection, schedule: Q01DX009 (ip), vehicle: Klucel (hydroxypropylcellulose) (HPC), higher T/C = longer survival) was 135 % of control.

Source: PubChem BioAssay AID270 (DTP/NCI, 2004)
